Laboratory results: patent US11110115B2, “Nucleic acid molecule with anti-inflammatory and anti-coagulant and organ-protective properties” (APTAHEM AB, priority 2017, dated 2021)
At least one compound was matched to its structure with a doubt left.

Test system: CD11b+CD14+ white blood cells
Assay: Flow cytometry of CD11b and CD14 on white blood cells after LPS injection
Format: in vivo, C57BL/6 mice
Conditions: Dexamethasone 10 mg/kg i.p.; 2 h after LPS
Description: Female C57BL/6 mice (Taconic Biosciences) were 8 weeks of age at the start of the study. Animals had free access to autoclaved and acidified drinking water. Animals were housed under standard laboratory conditions, air conditioned and filtered with adequate fresh air supply. Animals were kept in a climate controlled environment.
SEQ ID NO:2 (Biospring) (100 mg) was dissolved in 5 ml saline to form a stock solution of 20 mg/ml. Vehicle is saline solution.
Dexamethasone stock was prepared by mixing dexamethasone and beta-cyclodextrin at a 4:96 ratio, solubilized in PBS at 2 mg dexamethasone/mL and stored at −20° C. Dosing solution of dexamethasone was prepared by diluting the stock solution to 1 mg/mL with PBS. Dexamethasone administered at 5 to 10 mg/kg, i.p. is used as a positive control for suppression of the immune response.
Two hours after LPS injection mice were bled and blood samples were taken. Flow cytometry study was performed on BD FACSCalibur (lasers: 488 nm; 635 nm and UV). In our study we measured the expression of integrin Mac-1 (CD11b/18) on leukocytes by means of flow cytometry. Expression of CD11b on all leukocytes monocytes and granulocytes were assessed by flow cytometry using double fluorescence staining (CD 45/CD11b).

C[C@@H]1C[C@H]2[C@@H]3CCC4=CC(=O)C=C[C@]4(C)[C@@]3(F)[C@@H](O)C[C@]2(C)[C@@]1(O)C(=O)CO [Dexamethasone, dexamethasone, reference compound]
expression of CD11b on CD11b+ cells compared to vehicle group: significantly reduced
proportion of CD11b+CD14+ cells in white blood cells compared to vehicle group: similar
